Experimental data taken from patent US20240016819A1, “CANNABINOIDS FOR USE IN THE TREATMENT OF EPILEPSY” (GW RESEARCH LIMITED, priority 2020, published 2024).

Assay: Solubility of the drug substance in water
Type: physicochemical

In the case of `C=C(C)[C@@H]1CCC(C)=C[C@H]1c1c(O)cc(CCCCC)cc1O` [CBD Extract, Cannabidiol], the solubility in water is reported as “insoluble in water”.
